{
  "source": "the supplement of paper PMC4604168 (melanoma cell lines)",
  "note": "The other results are listed elsewhere or left out. Single values are uncertain, as repeats are few or missing.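 Cells were imaged in 1,536-well plates, and nuclei stained with an antibody against cleaved PARP were counted against all DNA-stained nuclei to give the apoptosis fraction. Screening doses were chosen to leave most cells alive, and resting and induced cleaved-PARP levels differ strongly between cell lines.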",
  "data": [
    {"system": "CBRC016 (line from a melanoma biopsy)", "experiment": "cleaved PARP positive nuclei fraction relative to DMSO control; higher = more apoptosis", "conditions": "library dose: low library concentration; 72 h", "units": {"cleaved PARP positive nuclei fraction": "%"}, "values": [
      {"smiles": "N#CC[C@H](C1CCCC1)n1cc(-c2ncnc3[nH]ccc23)cn1", "note": "[ruxolitinib] + CO[C@@H]1[C@H](N(C)C(=O)c2ccccc2)C[C@H]2O[C@]1(C)n1c3ccccc3c3c4c(c5c6ccccc6n2c5c31)C(=O)NC4 [Midostaurin] (first compound 1 µM, partner dose 0.08 µM)", "cleaved PARP positive nuclei fraction": 60.3},
      {"smiles": "CCCCCCCCCCCCCCCCCCOP(=O)([O-])OC1CC[N+](C)(C)CC1", "note": "[Perifosine] + COc1cc2c(Oc3ccc4[nH]c(C)cc4c3F)ncnc2cc1OCCCN1CCCC1 [cediranib] (first compound 0.4 µM, partner dose 0.4 µM)", "cleaved PARP positive nuclei fraction": 168},
      {"smiles": "N#CC[C@H](C1CCCC1)n1cc(-c2ncnc3[nH]ccc23)cn1", "note": "[ruxolitinib] + COc1cc2c(Oc3ccc4[nH]c(C)cc4c3F)ncnc2cc1OCCCN1CCCC1 [cediranib] (first compound 1 µM, partner dose 0.4 µM)", "cleaved PARP positive nuclei fraction": 121},
      {"smiles": "O=C(/C=C/c1cccnc1)NCCCCC1CCN(C(=O)c2ccccc2)CC1", "note": "+ O=C(O)c1ccc(-c2c[nH]c3ncc(-c4ccccc4)cc23)cc1C1CCCC1 [GSK650394] (first compound 0.01 µM, partner dose 0.16 µM)", "cleaved PARP positive nuclei fraction": 839},
      {"smiles": "Cc1cc(Nc2cc(N3CCN(C)CC3)nc(Sc3ccc(NC(=O)C4CC4)cc3)n2)n[nH]1", "note": "[Tozasertib] + NCC(=O)Nc1ccc(-n2nc(C(F)(F)F)cc2-c2ccc3c(ccc4ccccc43)c2)cc1 [OSU03012] (first compound 0.006 µM, partner dose 1 µM)", "cleaved PARP positive nuclei fraction": 44.1},
      {"smiles": "Cc1cn(-c2cc(NC(=O)c3ccc(C)c(Nc4nccc(-c5cccnc5)n4)c3)cc(C(F)(F)F)c2)cn1", "note": "[nilotinib] + CO[C@@H]1[C@H](N(C)C(=O)c2ccccc2)C[C@H]2O[C@]1(C)n1c3ccccc3c3c4c(c5c6ccccc6n2c5c31)C(=O)NC4 [Midostaurin] (first compound 0.2 µM, partner dose 0.08 µM)", "cleaved PARP positive nuclei fraction": 91.5},
      {"smiles": "Cc1ccc(Nc2nccc(N(C)c3ccc4c(C)n(C)nc4c3)n2)cc1S(N)(=O)=O", "note": "[Pazopanib] + CN(NC(=O)CC(=O)NN(C)C(=S)c1ccccc1)C(=S)c1ccccc1 [STA4783] (first compound 0.4 µM, partner dose 0.006 µM)", "cleaved PARP positive nuclei fraction": 316},
      {"smiles": "COc1cc([C@@H]2c3cc4c(cc3[C@@H](O[C@@H]3O[C@@H]5CO[C@@H](C)O[C@H]5[C@H](O)[C@H]3O)[C@H]3COC(=O)[C@H]23)OCO4)cc(OC)c1O", "note": "[etoposide] + Cc1ccc(NC(=O)c2cccc(N(C)C)c2)cc1NC(=O)c1ccc(O)cc1 [ZM336372] (first compound 0.02 µM, partner dose 2 µM)", "cleaved PARP positive nuclei fraction": 125},
      {"smiles": "O=C(/C=C/c1cccnc1)NCCCCC1CCN(C(=O)c2ccccc2)CC1", "note": "+ CN(NC(=O)CC(=O)NN(C)C(=S)c1ccccc1)C(=S)c1ccccc1 [STA4783] (first compound 0.01 µM, partner dose 0.006 µM)", "cleaved PARP positive nuclei fraction": 487}
    ]},
    {"system": "CBRC017 (line from a melanoma biopsy)", "experiment": "cleaved PARP positive nuclei fraction relative to DMSO control; melanoma cells; higher = more apoptosis", "conditions": "library dose: low library concentration; 72 h", "units": {"cleaved PARP positive nuclei fraction": "%"}, "values": [
      {"smiles": "O=c1[nH]nc(Sc2ncc([N+](=O)[O-])s2)n1-c1ccc2c(c1)OCCO2", "note": "+ COc1cc2c(Oc3ccc4[nH]c(C)cc4c3F)ncnc2cc1OCCCN1CCCC1 [cediranib] (first compound 0.2 µM, partner dose 0.4 µM)", "cleaved PARP positive nuclei fraction": 90.7},
      {"smiles": "Cc1cc(Nc2cc(N3CCN(C)CC3)nc(Sc3ccc(NC(=O)C4CC4)cc3)n2)n[nH]1", "note": "[Tozasertib] + NC(=O)Nc1cc(-c2cccc(F)c2)sc1C(=O)N[C@H]1CCCNC1 [AZD7762] (first compound 0.006 µM, partner dose 0.02 µM)", "cleaved PARP positive nuclei fraction": 91.8},
      {"smiles": "Cc1cn(-c2cc(NC(=O)c3ccc(C)c(Nc4nccc(-c5cccnc5)n4)c3)cc(C(F)(F)F)c2)cn1", "note": "[nilotinib] + O=C(Nc1cccc(Cl)c1)Nc1ncc(CCNc2ncnc3ccsc23)s1 [SNS314] (first compound 0.2 µM, partner dose 0.0008 µM)", "cleaved PARP positive nuclei fraction": 103},
      {"smiles": "CCCCCCCCCCCCCCCCCCOP(=O)([O-])OC1CC[N+](C)(C)CC1", "note": "[Perifosine] + CC(C)(C)c1cnc(CSc2cnc(NC(=O)C3CCNCC3)s2)o1 [SNS-032] (first compound 0.4 µM, partner dose 0.01 µM)", "cleaved PARP positive nuclei fraction": 285},
      {"smiles": "O=C(Nc1cc(C(F)(F)F)cc(C(F)(F)F)c1)c1cc(Cl)ccc1O", "note": "+ NCC(=O)Nc1ccc(-n2nc(C(F)(F)F)cc2-c2ccc3c(ccc4ccccc43)c2)cc1 [OSU03012] (first compound 0.016 µM, partner dose 1 µM)", "cleaved PARP positive nuclei fraction": 73.7},
      {"smiles": "CCCCCCCCCCCCCCCCCCOP(=O)([O-])OC1CC[N+](C)(C)CC1", "note": "[Perifosine] + O=C(O)c1ccc(-c2c[nH]c3ncc(-c4ccccc4)cc23)cc1C1CCCC1 [GSK650394] (first compound 0.4 µM, partner dose 0.16 µM)", "cleaved PARP positive nuclei fraction": 112},
      {"smiles": "O=C(Nc1cc(C(F)(F)F)cc(C(F)(F)F)c1)c1cc(Cl)ccc1O", "note": "+ C[C@@H]1CCN(C(=O)CC#N)C[C@@H]1N(C)c1ncnc2[nH]ccc12 [CP690550] (first compound 0.016 µM, partner dose 1 µM)", "cleaved PARP positive nuclei fraction": 84.5},
      {"smiles": "CC[C@]1(O)C[C@H]2CN(CCc3c([nH]c4ccccc34)[C@@](C(=O)OC)(c3cc4c(cc3OC)N(C=O)[C@H]3[C@@](O)(C(=O)OC)[C@H](OC(C)=O)[C@]5(CC)C=CCN6CC[C@]43[C@@H]65)C2)C1", "note": "[vincristine] + CO[C@@H]1[C@H](N(C)C(=O)c2ccccc2)C[C@H]2O[C@]1(C)n1c3ccccc3c3c4c(c5c6ccccc6n2c5c31)C(=O)NC4 [Midostaurin] (first compound 0.0001 µM, partner dose 0.08 µM)", "cleaved PARP positive nuclei fraction": 126},
      {"smiles": "COc1cc([C@@H]2c3cc4c(cc3[C@@H](O[C@@H]3O[C@@H]5CO[C@@H](C)O[C@H]5[C@H](O)[C@H]3O)[C@H]3COC(=O)[C@H]23)OCO4)cc(OC)c1O", "note": "[etoposide] + OCCn1cc(-c2cnc3nnn(Cc4ccc5ncccc5c4)c3n2)cn1 [PF04217903] (first compound 0.02 µM, partner dose 1 µM)", "cleaved PARP positive nuclei fraction": 90.8},
      {"smiles": "CCCCCCCCCCCCCCCCCCOP(=O)([O-])OC1CC[N+](C)(C)CC1", "note": "[Perifosine] + C[C@@H]1CCN(C(=O)CC#N)C[C@@H]1N(C)c1ncnc2[nH]ccc12 [CP690550] (first compound 0.4 µM, partner dose 1 µM)", "cleaved PARP positive nuclei fraction": 88.4},
      {"smiles": "O=C(/C=C/c1cccnc1)NCCCCC1CCN(C(=O)c2ccccc2)CC1", "note": "+ Cc1ccc(NC(=O)c2cccc(N(C)C)c2)cc1NC(=O)c1ccc(O)cc1 [ZM336372] (first compound 0.01 µM, partner dose 2 µM)", "cleaved PARP positive nuclei fraction": 406},
      {"smiles": "Cc1ccc(Nc2nccc(N(C)c3ccc4c(C)n(C)nc4c3)n2)cc1S(N)(=O)=O", "note": "[Pazopanib] + COc1cc(Nc2ncc(F)c(Nc3ccc4c(n3)NC(=O)C(C)(C)O4)n2)cc(OC)c1OC [Tamatinib] (first compound 0.4 µM, partner dose 0.4 µM)", "cleaved PARP positive nuclei fraction": 182},
      {"smiles": "N#CC[C@H](C1CCCC1)n1cc(-c2ncnc3[nH]ccc23)cn1", "note": "[ruxolitinib] + COc1cc(Nc2ncc(F)c(Nc3ccc4c(n3)NC(=O)C(C)(C)O4)n2)cc(OC)c1OC [Tamatinib] (first compound 1 µM, partner dose 0.4 µM)", "cleaved PARP positive nuclei fraction": 110},
      {"smiles": "COc1cc([C@@H]2c3cc4c(cc3[C@@H](O[C@@H]3O[C@@H]5CO[C@@H](C)O[C@H]5[C@H](O)[C@H]3O)[C@H]3COC(=O)[C@H]23)OCO4)cc(OC)c1O", "note": "[etoposide] + CN(NC(=O)CC(=O)NN(C)C(=S)c1ccccc1)C(=S)c1ccccc1 [STA4783] (first compound 0.02 µM, partner dose 0.006 µM)", "cleaved PARP positive nuclei fraction": 271},
      {"smiles": "O=C(Nc1cc(C(F)(F)F)cc(C(F)(F)F)c1)c1cc(Cl)ccc1O", "note": "+ O=C(Nc1cccc(Cl)c1)Nc1ncc(CCNc2ncnc3ccsc23)s1 [SNS314] (first compound 0.016 µM, partner dose 0.0008 µM)", "cleaved PARP positive nuclei fraction": 115},
      {"smiles": "Cc1cn(-c2cc(NC(=O)c3ccc(C)c(Nc4nccc(-c5cccnc5)n4)c3)cc(C(F)(F)F)c2)cn1", "note": "[nilotinib] + NC(=O)Nc1cc(-c2cccc(F)c2)sc1C(=O)N[C@H]1CCCNC1 [AZD7762] (first compound 0.2 µM, partner dose 0.02 µM)", "cleaved PARP positive nuclei fraction": 65.8},
      {"smiles": "Cc1cn(-c2cc(NC(=O)c3ccc(C)c(Nc4nccc(-c5cccnc5)n4)c3)cc(C(F)(F)F)c2)cn1", "note": "[nilotinib] + O=C(O)c1ccc(-c2c[nH]c3ncc(-c4ccccc4)cc23)cc1C1CCCC1 [GSK650394] (first compound 0.2 µM, partner dose 0.16 µM)", "cleaved PARP positive nuclei fraction": 103},
      {"smiles": "O=C(/C=C/c1cccnc1)NCCCCC1CCN(C(=O)c2ccccc2)CC1", "note": "+ CC(C)(C)c1cnc(CSc2cnc(NC(=O)C3CCNCC3)s2)o1 [SNS-032] (first compound 0.01 µM, partner dose 0.01 µM)", "cleaved PARP positive nuclei fraction": 320},
      {"smiles": "Cc1cn(-c2cc(NC(=O)c3ccc(C)c(Nc4nccc(-c5cccnc5)n4)c3)cc(C(F)(F)F)c2)cn1", "note": "[nilotinib] + O=C(CCCCCCC(=O)Nc1ccccc1)NO [vorinostat] (first compound 0.2 µM, partner dose 0.08 µM)", "cleaved PARP positive nuclei fraction": 89.9},
      {"smiles": "N#CC[C@H](C1CCCC1)n1cc(-c2ncnc3[nH]ccc23)cn1", "note": "[ruxolitinib] + O=C(O)c1ccc(-c2c[nH]c3ncc(-c4ccccc4)cc23)cc1C1CCCC1 [GSK650394] (first compound 1 µM, partner dose 0.16 µM)", "cleaved PARP positive nuclei fraction": 111}
    ]}
  ]
}
